Results published in patent publication US9556231B2 (POLYPHOR AG, priority 2011, dated 2017).
One purity is given for all peptides; the source may state it once.

assay: general procedure: Fmoc solid-phase peptide synthesis; Fmoc-Pro-2-chlorotrityl resin; conditions: whole synthesis, UV 220 nm

Final HPLC purity, 95%:
Pro^16-^DPro^15-Lys(iPr)^14-Gln^13-Tyr^12-Cys^11-Tyr^10-Arg^9-Orn(iPr)^8-^DTyr(Me)^7-Ala^6-Ser^5-Cys^4-Ala^3-His^2-Tyr^1, Pro^16-^DPro^15-Lys(iPr)^14-Gln^13-Tyr^12-Cys^1-Tyr^10-Arg^9-Orn(iPr)^8-^DTyr^7-Ala^6-Ser^5-Cys^4-Tyr^3-His^2-Tyr^1, Pro^16-^DPro^15-Lys(iPr)^14-Gln^13-Tyr^12-Cys^11-Tyr^10-Arg^9-Orn(iPr)^8-^DPro^7-Ala^6-Ser^5-Cys^4-Tyr^3-His^2-Tyr^1, Pro^16-^DPro^15-Lys(iPr)^14-Gln^13-Tyr^12-Cys^11-Tyr^10-Arg^9-Dab^8-^DTyr^7-Ala^6-Ser^5-Cys^4-Ala^3-His^2-Tyr^1, Pro^16-^DPro^15-Lys(iPr)^14-Gln^13-Tyr^12-Cys^11-Tyr^10-Arg^9-Orn(iPr)^8-^DTyr(Me)^7-Ala^6-Ser^5-Cys^4-Tyr(Me)^3-His^2-Tyr^1, Pro^16-^DPro^15-Lys(iPr)^14-Gln^13-Tyr^12-Cys^11-Tyr^10-Arg^9-Orn(iPr)^8-^DPro^7-Ala^6-Ser^5-Cys^4-Tyr(Me)^3-His^2-Tyr^1
